The supplement of paper PMC9549374
The other results are listed elsewhere or left out. Rule as the data show it: active = 2-fold of DMSO or more and inactive = the rest. Single values of this set are uncertain. Some low values are a fixed figure set by the source, not a measured ratio.

tested on: CM7/1-hgem mouse ES cell-derived cardiomyocytes; experiment: maximal number of mAG-hGem(1/110)-positive cardiomyocytes over 96 h, fold-change vs DMSO; higher = more cardiomyocyte cell cycle activity; conditions: 1 µM; 96 (max over 12 h time points) h

| Compound | maximal number |
| --- | --- |
| COC(=O)C[C@H]1C(C)(C)C2(O)OC34CC2C(=O)[C@]1(C)C3CC[C@]1(C)C4=CC(=O)O[C@H]1c1ccoc1 (stereo partly drawn) [8beta-HYDROXYCARAPIN, 3,8-HEMIACETAL] | inactive: 1 |
| CC(=O)Oc1cccc(O)c1 | inactive: 1 |
| C=C[C@@H](C1=CC(=O)C(OC)=C(OC)C1=O)c1ccccc1 | inactive: 0.5 |
| CC(=O)Oc1cc(-c2coc3cc(OC(C)=O)c(OC(C)=O)c(OC(C)=O)c3c2=O)cc(OC(C)=O)c1OC(C)=O | inactive: 1 |
